Measurements reported in patent US20110035817A1.
No constants are given. Whether binding was seen depends on the method and setting. In cells and extracts the contact can be indirect. Some binding calls cover weakened binding; strength is not graded here. Tags and fused reporters may be left off the sequences shown. Values belong to the binder of their own block, whether it stands above or below them.

Protein sequences, listed by entry. Tags and fused reporters are not part of them.
UniProt Q13490: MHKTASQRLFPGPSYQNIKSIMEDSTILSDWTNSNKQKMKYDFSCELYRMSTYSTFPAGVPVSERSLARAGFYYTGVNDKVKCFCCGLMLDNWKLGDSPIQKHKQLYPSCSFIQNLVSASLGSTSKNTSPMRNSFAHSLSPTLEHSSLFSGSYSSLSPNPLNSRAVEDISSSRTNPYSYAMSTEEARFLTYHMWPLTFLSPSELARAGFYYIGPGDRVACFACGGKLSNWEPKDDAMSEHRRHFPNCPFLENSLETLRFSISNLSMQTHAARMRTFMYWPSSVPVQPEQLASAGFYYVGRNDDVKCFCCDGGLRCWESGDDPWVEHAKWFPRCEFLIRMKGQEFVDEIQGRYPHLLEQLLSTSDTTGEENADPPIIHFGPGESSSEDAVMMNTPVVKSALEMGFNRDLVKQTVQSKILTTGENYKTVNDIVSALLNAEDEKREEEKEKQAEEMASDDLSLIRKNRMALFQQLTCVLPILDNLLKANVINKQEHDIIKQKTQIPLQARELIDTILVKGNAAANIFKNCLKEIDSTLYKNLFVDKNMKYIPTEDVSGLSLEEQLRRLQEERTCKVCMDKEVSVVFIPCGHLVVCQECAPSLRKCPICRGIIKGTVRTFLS

Experiments:
[1] = target: endogenous cellular inhibitor of apoptosis protein 1 (cIAP1) (UniProt Q13490); assay: co-immunoprecipitation from HEK-293T lysate: endogenous cIAP1 immunoprecipitated with anti-cIAP1, SIVA detected by Western blot
FLAG-TRAF2 = target: T1, FLAG-TRAF2 (UniProt Q12933); assay: co-immunoprecipitation from HEK-293T lysate: FLAG-TRAF2 immunoprecipitated with anti-FLAG, SIVA detected by Western blot with anti HIS
T1 sequence (looked up): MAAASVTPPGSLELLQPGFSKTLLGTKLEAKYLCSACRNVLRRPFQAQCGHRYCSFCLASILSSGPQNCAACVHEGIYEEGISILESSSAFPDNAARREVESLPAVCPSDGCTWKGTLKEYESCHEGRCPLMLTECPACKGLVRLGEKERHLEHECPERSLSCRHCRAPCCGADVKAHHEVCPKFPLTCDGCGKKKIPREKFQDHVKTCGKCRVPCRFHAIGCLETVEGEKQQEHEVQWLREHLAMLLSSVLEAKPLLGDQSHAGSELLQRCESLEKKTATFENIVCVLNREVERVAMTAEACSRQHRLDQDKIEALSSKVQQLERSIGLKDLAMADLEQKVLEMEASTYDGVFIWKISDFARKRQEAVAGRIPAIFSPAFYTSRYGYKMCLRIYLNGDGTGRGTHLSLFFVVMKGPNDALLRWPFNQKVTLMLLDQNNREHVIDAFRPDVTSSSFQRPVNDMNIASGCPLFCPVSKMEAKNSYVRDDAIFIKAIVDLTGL

binding [1]: binds
B1: FLAG-SIVA3 (protein, not shown: small tags and cut ends)
chain: MPKRSCPFADVAPLQLKVRVSQRELSRGVCAERYSQEVFAAVTCTRKCCAPAVPCSRPEAGSSRLPSPGATPCMAAFPGRALGVHTELWGRREGCLLHVLFCILMTE

binding (FLAG-TRAF2): binds
B2: HIS-SIVA3 (protein, not shown: small tags and cut ends)
chain: B1 chain
